The supplement of paper PMC7666118
The list shows a part of the results.

The chains behind the UniProt entries cited, without tags or fusion partners. Where a name states a change or a piece, a line headed by the entry shows the natural chain unless it says otherwise.
UniProt Q9H6T3, whole entry: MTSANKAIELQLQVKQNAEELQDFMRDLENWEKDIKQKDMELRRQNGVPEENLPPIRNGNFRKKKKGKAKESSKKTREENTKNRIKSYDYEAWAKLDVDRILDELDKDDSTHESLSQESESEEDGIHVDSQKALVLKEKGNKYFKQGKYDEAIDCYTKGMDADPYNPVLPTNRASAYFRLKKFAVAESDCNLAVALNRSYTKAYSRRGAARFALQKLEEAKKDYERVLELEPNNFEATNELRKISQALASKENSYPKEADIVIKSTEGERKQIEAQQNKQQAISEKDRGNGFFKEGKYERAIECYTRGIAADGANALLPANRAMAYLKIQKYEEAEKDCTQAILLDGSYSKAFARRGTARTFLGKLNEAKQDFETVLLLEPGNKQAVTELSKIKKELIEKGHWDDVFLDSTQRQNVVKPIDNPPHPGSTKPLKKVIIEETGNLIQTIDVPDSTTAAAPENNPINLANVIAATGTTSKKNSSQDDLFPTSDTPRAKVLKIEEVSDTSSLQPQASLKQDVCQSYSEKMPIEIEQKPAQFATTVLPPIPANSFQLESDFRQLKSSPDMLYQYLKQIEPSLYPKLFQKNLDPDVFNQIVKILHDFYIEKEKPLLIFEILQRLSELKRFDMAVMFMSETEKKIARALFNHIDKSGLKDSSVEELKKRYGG
UniProt Q8ND24: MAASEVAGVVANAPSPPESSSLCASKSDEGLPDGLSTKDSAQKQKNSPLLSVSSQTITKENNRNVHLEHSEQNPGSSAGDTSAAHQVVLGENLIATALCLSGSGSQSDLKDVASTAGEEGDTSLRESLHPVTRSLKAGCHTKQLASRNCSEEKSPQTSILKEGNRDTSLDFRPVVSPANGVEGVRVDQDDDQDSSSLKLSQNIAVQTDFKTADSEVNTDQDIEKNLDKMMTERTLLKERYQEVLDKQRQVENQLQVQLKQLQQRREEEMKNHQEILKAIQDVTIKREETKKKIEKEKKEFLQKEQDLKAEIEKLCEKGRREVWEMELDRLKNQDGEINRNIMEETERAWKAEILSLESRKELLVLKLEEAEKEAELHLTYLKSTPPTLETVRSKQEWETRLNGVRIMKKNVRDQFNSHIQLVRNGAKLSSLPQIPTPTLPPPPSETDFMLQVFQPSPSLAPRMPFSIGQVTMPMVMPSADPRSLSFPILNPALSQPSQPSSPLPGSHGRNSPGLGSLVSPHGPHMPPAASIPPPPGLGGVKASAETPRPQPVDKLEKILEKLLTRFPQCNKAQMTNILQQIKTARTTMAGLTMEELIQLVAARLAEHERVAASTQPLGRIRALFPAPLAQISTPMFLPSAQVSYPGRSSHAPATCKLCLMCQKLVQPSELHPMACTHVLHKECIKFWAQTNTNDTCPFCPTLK
UniProt Q96CM3: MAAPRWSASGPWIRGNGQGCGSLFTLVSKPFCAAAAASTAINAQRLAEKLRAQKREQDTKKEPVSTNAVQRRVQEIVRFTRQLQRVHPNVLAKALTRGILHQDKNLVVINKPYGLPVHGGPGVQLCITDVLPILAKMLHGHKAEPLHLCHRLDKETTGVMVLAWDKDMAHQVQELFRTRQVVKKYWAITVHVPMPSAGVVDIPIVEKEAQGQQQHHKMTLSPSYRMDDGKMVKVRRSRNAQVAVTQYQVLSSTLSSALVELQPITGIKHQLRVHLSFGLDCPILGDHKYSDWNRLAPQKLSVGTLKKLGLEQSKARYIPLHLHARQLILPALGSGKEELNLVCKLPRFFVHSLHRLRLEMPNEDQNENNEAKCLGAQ
UniProt P13489: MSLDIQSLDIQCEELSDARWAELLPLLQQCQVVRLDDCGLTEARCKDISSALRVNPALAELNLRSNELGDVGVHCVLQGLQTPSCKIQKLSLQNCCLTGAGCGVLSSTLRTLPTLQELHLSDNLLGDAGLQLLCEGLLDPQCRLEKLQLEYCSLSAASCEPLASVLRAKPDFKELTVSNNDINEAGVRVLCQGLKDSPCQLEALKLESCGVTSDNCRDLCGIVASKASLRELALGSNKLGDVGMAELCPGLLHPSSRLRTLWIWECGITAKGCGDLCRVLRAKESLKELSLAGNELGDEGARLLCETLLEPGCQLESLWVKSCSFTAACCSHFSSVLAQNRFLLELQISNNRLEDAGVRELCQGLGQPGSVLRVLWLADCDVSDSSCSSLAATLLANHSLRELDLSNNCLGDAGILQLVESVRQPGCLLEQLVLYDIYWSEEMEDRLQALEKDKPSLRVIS
UniProt Q9H4P4: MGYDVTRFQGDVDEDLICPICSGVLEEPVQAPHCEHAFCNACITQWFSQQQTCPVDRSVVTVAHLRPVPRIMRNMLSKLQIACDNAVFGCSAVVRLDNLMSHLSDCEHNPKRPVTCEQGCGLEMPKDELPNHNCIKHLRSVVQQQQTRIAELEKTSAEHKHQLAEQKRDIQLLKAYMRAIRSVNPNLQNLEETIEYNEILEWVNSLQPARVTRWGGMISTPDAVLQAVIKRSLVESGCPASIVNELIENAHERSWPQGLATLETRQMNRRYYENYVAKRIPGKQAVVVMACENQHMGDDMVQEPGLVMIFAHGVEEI
UniProt Q8TB24: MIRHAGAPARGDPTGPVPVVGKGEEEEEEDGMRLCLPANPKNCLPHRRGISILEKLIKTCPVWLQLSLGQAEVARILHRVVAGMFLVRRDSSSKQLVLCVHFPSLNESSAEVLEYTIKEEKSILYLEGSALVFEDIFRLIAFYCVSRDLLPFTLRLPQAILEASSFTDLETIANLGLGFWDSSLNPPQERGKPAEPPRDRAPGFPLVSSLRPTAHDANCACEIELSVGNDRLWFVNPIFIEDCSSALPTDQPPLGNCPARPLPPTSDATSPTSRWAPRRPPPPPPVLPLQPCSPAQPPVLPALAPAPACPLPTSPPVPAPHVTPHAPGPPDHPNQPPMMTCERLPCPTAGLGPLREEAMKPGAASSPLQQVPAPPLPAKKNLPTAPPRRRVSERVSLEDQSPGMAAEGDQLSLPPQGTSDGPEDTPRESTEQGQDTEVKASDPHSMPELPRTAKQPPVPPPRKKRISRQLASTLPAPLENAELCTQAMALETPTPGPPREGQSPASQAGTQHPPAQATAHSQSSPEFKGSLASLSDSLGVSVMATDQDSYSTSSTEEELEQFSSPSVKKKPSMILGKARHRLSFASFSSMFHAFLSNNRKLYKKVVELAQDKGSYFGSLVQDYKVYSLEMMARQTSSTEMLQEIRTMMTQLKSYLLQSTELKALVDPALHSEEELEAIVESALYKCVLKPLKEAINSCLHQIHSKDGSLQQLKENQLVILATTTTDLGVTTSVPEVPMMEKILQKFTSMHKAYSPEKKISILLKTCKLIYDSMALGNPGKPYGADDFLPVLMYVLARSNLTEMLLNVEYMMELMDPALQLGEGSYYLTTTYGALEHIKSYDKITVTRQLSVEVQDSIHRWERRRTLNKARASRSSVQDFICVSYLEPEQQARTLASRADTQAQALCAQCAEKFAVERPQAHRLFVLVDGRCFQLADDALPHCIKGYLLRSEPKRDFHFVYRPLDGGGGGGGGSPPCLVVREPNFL
UniProt O15258: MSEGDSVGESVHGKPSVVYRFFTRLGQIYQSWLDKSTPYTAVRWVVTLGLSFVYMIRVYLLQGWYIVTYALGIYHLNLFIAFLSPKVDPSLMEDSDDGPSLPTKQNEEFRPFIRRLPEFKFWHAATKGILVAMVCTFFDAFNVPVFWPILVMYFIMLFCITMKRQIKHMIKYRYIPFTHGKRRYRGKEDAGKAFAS
UniProt Q8WWV3: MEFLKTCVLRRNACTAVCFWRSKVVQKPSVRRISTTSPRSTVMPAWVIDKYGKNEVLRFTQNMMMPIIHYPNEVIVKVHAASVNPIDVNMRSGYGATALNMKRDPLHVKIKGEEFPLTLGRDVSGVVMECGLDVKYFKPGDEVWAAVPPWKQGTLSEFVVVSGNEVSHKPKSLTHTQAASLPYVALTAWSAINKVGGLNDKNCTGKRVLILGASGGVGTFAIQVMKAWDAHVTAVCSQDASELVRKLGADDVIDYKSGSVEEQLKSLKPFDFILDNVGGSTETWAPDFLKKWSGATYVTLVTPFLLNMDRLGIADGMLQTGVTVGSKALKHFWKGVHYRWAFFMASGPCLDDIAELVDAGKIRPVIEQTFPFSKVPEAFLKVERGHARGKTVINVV
UniProt P15927: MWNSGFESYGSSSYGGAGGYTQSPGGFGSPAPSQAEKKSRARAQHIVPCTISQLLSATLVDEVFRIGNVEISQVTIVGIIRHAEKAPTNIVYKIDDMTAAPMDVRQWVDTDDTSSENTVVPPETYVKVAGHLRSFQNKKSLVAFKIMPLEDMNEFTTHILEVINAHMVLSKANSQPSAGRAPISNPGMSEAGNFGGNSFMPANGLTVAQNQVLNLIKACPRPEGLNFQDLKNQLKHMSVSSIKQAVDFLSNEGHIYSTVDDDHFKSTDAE

The targets below were run with COc1ccc(Cn2ccc3ccc(C(=O)NO)cc32)cc1 (assay: dose-dependent thermal stabilisation call (2D-TPP, DLPTP, 10% FDR) (binary (1 = stabilised)); higher = stabilised by the compound). Details: system: HL-60 intact cells; concentration range 0.04-10 µM.
RPAP3 (UniProt Q9H6T3) was tested, and the “dose-dependent thermal stabilisation call” value was inactive: 0. With RNF214 (UniProt Q8ND24) the “dose-dependent thermal stabilisation call” value was inactive: 0. For RPL3 (UniProt P39023), the “dose-dependent thermal stabilisation call” value was inactive: 0. RPUSD4 (UniProt Q96CM3) was tested, and the “dose-dependent thermal stabilisation call” value was inactive: 0. For RNH1 (UniProt P13489), the “dose-dependent thermal stabilisation call” value was inactive: 0. In the case of RNF41 (UniProt Q9H4P4), the “dose-dependent thermal stabilisation call” value is reported as inactive: 0. For RP5-1022P6 2, the “dose-dependent thermal stabilisation call” value was inactive: 0. In the case of RIN3 (UniProt Q8TB24), the “dose-dependent thermal stabilisation call” value is reported as inactive: 0. In the case of RER1 (UniProt O15258), the “dose-dependent thermal stabilisation call” value is reported as inactive: 0. For RTN4IP1 (UniProt Q8WWV3), the “dose-dependent thermal stabilisation call” value was inactive: 0. With RPA2 (UniProt P15927) the “dose-dependent thermal stabilisation call” value was inactive: 0.
